Data on 1 compound can be found in US20020188202A1, “Method of diagnosis and treatment and related compositions and apparatus” (priority 1996, published 2002).

For the assay, the system named is patients with cerebral vasospasm. Kind of assay: Vasoactive medications tried on Applicant's patients with vasospasm, monitored by Transcranial Doppler (TCD), exam and symptoms. Particulars: qualitative rating in Applicant's patient population (tend to be the most severe cases).

As for `N=C(N)NCCN1CCCCCCC1` [Ismelin, Guanethidine], the “effectiveness in treating the vasospasm” value is on record as “less successful results”.
